Here are results for 43 molecules from PubChem BioAssay AID662 (National Center for Advancing Translational Sciences (NCATS), 2007).

Usually AC50 stands for the concentration at which the activity in the assay is half-maximal.

Each structure is given as a SMILES string. Some of the results follow. The main result of the screen is listed elsewhere. These columns were measured beside it and carry no call. Compounds called inactive in the main read-out are mostly missing here. The note in brackets gives the kind of curve behind each potency; many fits are weak.

This assay in a line: Cell signaling CRE-BLA (Fsk stim). To be noted: CHO CRE-bla reporter (cAMP response element driving beta-lactamase), forskolin EC10, beta-lactamase ratio; measured here: 460 nm blue channel. The essentials: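 Beta-lactamase reporter under a cAMP responsive element in CHO cells; compounds tested in titration series against EC10 NKH 477, 3 h at 37 °C. Read-out: CCF4 FRET ratio 460nm/530nm (excitation 405nm) giving %Activity, fitted to AC50.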
In the case of `O=C(CC1Nc2ccccc2NC1=O)c1ccccc1` (stereo not drawn), the AC50 is 20 µM [rising, single point]. `COCCN1C=C(C(=O)OC)C(c2ccc3c(c2)OCO3)C(C(=O)OC)=C1`: the AC50 is 12.6 µM [rising, single point]. In the case of `O=C(O)c1ccc2c(c1)nnn2C1CCCCC1`, the AC50 is 3.16 µM [rising, single point].

With `N#C/C(=C\c1ccc(O)c(O)c1)C(=O)NCCc1ccccc1`, the AC50 is 7.94 µM [falling, full curve, poor fit]. On to `Fc1cccc2sc(Nc3nnc(-c4ccccc4)o3)nc12`, for which the AC50 is 2 µM [falling, full curve]. To `Cc1nc2c(cc(Oc3ccc(S(=O)(=O)N4CCOCC4)cn3)c3ccsc32)s1` belongs 10 µM [rising, partial curve]; to `CN(c1cc(=O)n2ccccc2n1)C1CCCCC1`, 3.16 µM [rising, single point]. For `O=c1cc(-c2ccccc2)[nH]c2nc(Cl)ccc12`, the AC50 is 12.6 µM [rising, single point]. To `COC(=O)c1c(-c2cccnc2)csc1NC(=O)c1cc(C)on1` belongs 2.51 µM [rising, full curve]; to `CN(C)c1ncc2nc(CCc3ccccc3)c(=O)n(CCc3ccccc3)c2n1`, 5.01 µM [rising, partial curve]. On to `COC(=O)c1cccc(NC(=O)C2COc3ccccc3O2)c1` (stereo not drawn), for which the half-maximal activity concentration (AC50) was 0.00398 µM [falling, full curve, poor fit].

Take `CC[C@H](C)[C@@H]1O[C@]2(CC[C@@H]1C)C[C@H]1C[C@H](CC=C(C)[C@@H](O[C@@H]3C[C@H](OC)[C@H](O[C@@H]4C[C@H](OC)[C@H](O)[C@H](C)O4)[C@H](C)O3)[C@@H](C)C=CC=C3CO[C@@H]4[C@@H](O)C(C)=C[C@@H](C(=O)O1)[C@]34O)O2`: the AC50 was 12.6 µM [falling, single point].

As to `C=CCNC(=O)c1c(N)n(-c2ccc3c(c2)OCO3)c2nc3ccccc3nc12`, the AC50 was 0.398 µM [rising, full curve]. As for `c1ccc(-c2noc(-c3cccnc3)n2)nc1`, the AC50 was 25.1 µM [rising, single point]. To `CCN1c2ccccc2NC2C1C(C(C)=O)C(=O)N2c1ccc(Cl)cc1` (stereo not drawn) belongs 12.6 µM [rising, partial curve]; to `Cc1ccc(-c2nc(CN(C)C)cc(CN(C)C)c2O)cc1`, 25.1 µM [rising, single point].

`COCCn1c(=O)c(-c2ccc(OC)cc2)nc2cnc(Nc3cccc(OC)c3)nc21`: the AC50 is 2 µM [rising, full curve]. For the molecule `CN1CCN(c2ncc3nc(-c4ccccc4)c(=O)n(Cc4cccs4)c3n2)CC1`, the AC50 was 10 µM [rising, partial curve]. For `Cc1nc2cccc(C(=O)NCc3ccccc3)c2o1`, the AC50 is 0.00398 µM [falling, full curve]. Consider `O=C(CSc1nnc2scc(-c3ccccc3)n12)Nc1nsc(-c2ccc(Cl)cc2)n1`, for which the AC50 is 1.26 µM [rising, partial curve].

On to `CCOC(=O)C1CCCN(C(=O)Cc2c(F)cccc2Cl)C1` (stereo not drawn), for which the AC50 was 25.1 µM [falling, single point]. In the case of `CSc1nsc(SCC(=O)N2CCN(c3ccccc3)CC2)n1`, the AC50 is 0.1 µM [falling, full curve]. Regarding `CCNc1ncc2nc(-c3cccs3)c(=O)n(CCC#N)c2n1`, the AC50 is 10 µM [rising, partial curve]. As for `Cc1nc2oc3c(NCC4CCCO4)ncnc3c2c2c1COC(C)(C)C2` (stereo not drawn), the AC50 was 10 µM [rising, partial curve]. Regarding `CCOC(=O)N1CCC(NC(=O)C2CCN(S(=O)(=O)c3cccs3)CC2)CC1`, the AC50 is 0.158 µM [falling, full curve]. As to `Cc1onc(-c2ccccc2)c1C(=O)Nc1sc2c(c1C(N)=O)CCC2`, the AC50 was 10 µM [rising, partial curve]. Under `Cc1c(/C(O)=C2\C(=O)C(=O)N(CCCN(C)C)C2c2ccncc2)cnn1-c1ccccc1` (stereo not drawn) stands 25.1 µM [rising, single point]; under `O=P(c1ccccc1)(c1ccccc1)C(c1ccco1)N1CCOCC1` (stereo not drawn), 0.126 µM [falling, full curve, poor fit]; under `Cc1nc(CSc2nnc3scc(-c4ccc(Cl)cc4)n23)cs1`, 10 µM [rising, partial curve]. To `O=S(=O)(c1ccccc1)c1ccc(NCc2ccco2)cc1` belongs 0.02 µM [rising, full curve]; to `CCOC(=O)c1ccc(N2C(=O)c3n[nH]c(C)c3C2c2ccccc2)cc1` (stereo not drawn), 0.0251 µM [falling, partial curve]; to `c1cnc2c(SCc3ccc(-c4nnco4)cc3)cccc2c1`, 2.51 µM [rising, partial curve]. To `CC(=O)Nc1c(C(=O)N2CCOCC2)sc2nc3c(cc12)COC(C)(C)C3` belongs 10 µM [rising, single point]; to `CCSC(C)CC1C/C(=N/O)c2c(CC)noc2C1` (stereo not drawn), 25.1 µM [rising, single point]; to `O=C(NCCCN1CCOCC1)c1ccc(Br)cc1`, 0.251 µM [rising, full curve, poor fit]. Consider `O=S(=O)(c1cccc(-c2nnc(SC(F)F)n2-c2ccccc2)c1)N1CCCCC1`, for which the AC50 is 10 µM [rising, partial curve]. With `CCOC(=O)c1cnc2c(C(=O)OC)cccc2c1NCc1ccco1`, the AC50 was 7.94 µM [rising, partial curve]. In the case of `CCN(CC)CCn1c2ccccc2c2cnc(N=CN(C)C)c(C#N)c21`, the AC50 was 12.6 µM [rising, partial curve]. Turning to `Cc1sc2ncnc(SCC(=O)N3CCCC3=O)c2c1C`, the AC50 was 10 µM [rising, partial curve]. With `COc1ccc(CCNc2oc(-c3ccc(C)cc3)nc2C#N)cc1OC`, the AC50 is 3.16 µM [rising, full curve]. To `N#Cc1nc(Cc2cccc3ccccc23)oc1NCc1ccco1` belongs 2.51 µM [rising, single point].

In the case of `O=S(=O)(c1cccc(-c2cn3cc(Cl)ccc3n2)c1)N1CCOCC1`, the AC50 is 3.98 µM [rising, single point]. As to `c1ccc2c(-n3ccnc3)nc(-c3ccoc3)nc2c1`, the AC50 is 10 µM [rising, partial curve].
